PubChem BioAssay AID1159578 | Peter MacCallum Cancer Centre | 2015

Aim: 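siRNA pools altering how lymphatic endothelial cells close a scratch wound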 (primary screen)
Cell system: human lymphatic endothelial cells
Knock-down reagent: siRNA pool against human genes, 40 nM
Timing: 48 h after transfection
Detection: 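High-content imaging of dye-stained cells in a scratch assay measures filled wound area and nuclei per well; duplicate means given as ratio to mock and robust z-score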
Reading the numbers: migration robust z-score: higher = faster migration into the scratch; migration relative to mock: higher = more scratch area covered than mock; nuclei per well: higher = more cells in the well
Call rule: 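Pools averaging fewer than 3300 nuclei are never called; remaining pools count as changed when migration robust z lies outside -2 to 2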
Calls: active = migration changed; inactive = no migration change, or too few cells
The deposit covers about 18,000 reagents; below is a random part of them. Over the whole deposit, about 1,030 (5.7%) are marked active. 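Inactive calls also include pools with fewer than 3300 nuclei, whose migration was not assessed.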 The raw values are shown without normalisation. Reagent sequences are not shown.

target gene	migration robust z-score	migration class with cell-count check	migration relative to mock	nuclei per well, duplicate mean	Outcome
ROPN1	-0.82	migration z between -2 and 2; enough cells	0.67	5627	inactive
C19orf47	-0.84	migration z between -2 and 2; enough cells	0.67	4741	inactive
PREB	-0.34	migration z between -2 and 2; enough cells	0.74	5518	inactive
ENG	1.21	migration z between -2 and 2; enough cells	1.21	5641	inactive
CHMP1B	0.94	migration z between -2 and 2; enough cells	1.12	5788	inactive
TRIM65	0.57	migration z between -2 and 2; enough cells	0.92	6856	inactive
KRTAP4-1	1.06	migration z between -2 and 2; enough cells	1.16	5873	inactive
OR1L6	-1.44	migration z between -2 and 2; enough cells	0.51	5414	inactive
SNRK	-1.06	migration z between -2 and 2; enough cells	0.6	5992	inactive
VAT1	0.24	migration z between -2 and 2; enough cells	0.85	5594	inactive
JAK2	0	migration z between -2 and 2; enough cells	0.8	4258	inactive
RAB11FIP1	0.64	migration z between -2 and 2; enough cells	1.05	6284	inactive
ABCB8	-0.42	migration z between -2 and 2; enough cells	0.78	6050	inactive
SFRP2	0.05	migration z between -2 and 2; enough cells	0.82	4416	inactive
COL1A1	0.2	migration z between -2 and 2; enough cells	0.94	6294	inactive
SCAI	0.36	migration z between -2 and 2; enough cells	0.98	5898	inactive
KRT2	0.46	migration z between -2 and 2; enough cells	1.01	6370	inactive
GOLGA7B	-1.33	migration z between -2 and 2; enough cells	0.54	6019	inactive
SAMD4B	-0.88	migration z between -2 and 2; enough cells	0.66	5074	inactive
TIGD2	0.12	migration z between -2 and 2; enough cells	0.91	6734	inactive
SATB1	-1.08	migration z between -2 and 2; enough cells	0.6	5517	inactive
MYD88	2.25	migration z above 2; enough cells	1.46	5376	active
CENPU	0.92	migration z between -2 and 2; enough cells	1.12	5334	inactive
PIPOX	-1.34	migration z between -2 and 2; enough cells	0.55	5344	inactive
PGM2	0.57	migration z between -2 and 2; enough cells	0.92	5404	inactive
GPC4	-1.14	migration z between -2 and 2; enough cells	0.58	5966	inactive
ADGRG7	-0.5	migration z between -2 and 2; enough cells	0.71	5166	inactive
SYTL3	-1.38	migration z between -2 and 2; enough cells	0.54	6324	inactive
IFTAP	0.84	migration z between -2 and 2; enough cells	1.1	5855	inactive
KCNA2	-0.05	migration z between -2 and 2; enough cells	0.8	6046	inactive
MAP2K2	0.73	migration z between -2 and 2; enough cells	0.94	5382	inactive
KIF11	-1.09	under 3300 nuclei; migration not judged	0.6	2930	inactive
SLC22A15	-0.47	migration z between -2 and 2; enough cells	0.72	5072	inactive
CEACAM7	0.14	migration z between -2 and 2; enough cells	0.92	4211	inactive
NAPB	-1.58	migration z between -2 and 2; enough cells	0.5	5218	inactive
PDCL	-2	migration z between -2 and 2; enough cells	0.42	5233	inactive
NUDT16	0.12	migration z between -2 and 2; enough cells	0.92	4433	inactive
NDUFC2	-0.44	migration z between -2 and 2; enough cells	0.72	5495	inactive
MMD2	-0.2	migration z between -2 and 2; enough cells	0.84	6864	inactive

3 successive entries from above:
target gene	migration robust z-score	migration class with cell-count check	migration relative to mock	nuclei per well, duplicate mean	Outcome
MYD88	2.25	migration z above 2; enough cells	1.46	5376	active
CENPU	0.92	migration z between -2 and 2; enough cells	1.12	5334	inactive
PIPOX	-1.34	migration z between -2 and 2; enough cells	0.55	5344	inactive
